Differences between knockout arms are mostly noise.
Tests used:
HCC-38 = test: relative cell number vs DMSO control (72 h) (% of DMSO); higher = less growth inhibition (more cells)
Description: (§1)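 QMAP-Seq: a pool of 5 breast cancer cell lines (ZR-75-1, SKBR3, HCC-38, MDA-MB-231, BT-20), each carrying 12 doxycycline-inducible Cas9 sgRNA perturbations (11 knockouts plus non-targeting sgNT), was treated with compounds for 72 h at four 10-fold doses (10 nM-10 uM or 1 nM-1 uM range). Barcodes were amplified and sequenced, and cell number was interpolated from 293T spike-in standard curves. The result is expressed as % of the median of DMSO wells. Two biological replicates.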

BT-20 = test: as above
Description: as §1

O=C(c1ccc(/C=C/c2n[nH]c3ccccc23)cc1)N1CCNCC1 [KW2449]
relative cell number
Conditions | BT-20 | HCC-38
sgRNA knockout: sgATF3, 10 nM | 89.4 | 90.2
sgRNA knockout: sgATF3, 100 nM | 87.9 | 87.1
sgRNA knockout: sgATF3, 1000 nM | 93.5 | 81.8
sgRNA knockout: sgATF3, 10000 nM | 67.6 | 38.24
sgRNA knockout: sgATF4, 10 nM | 102 | 82
sgRNA knockout: sgATF4, 100 nM | 94.9 | 89.4
sgRNA knockout: sgATF4, 1000 nM | 105 | 75.7
sgRNA knockout: sgATF4, 10000 nM | 88.7 | 40.4
sgRNA knockout: sgATF6, 10 nM | 84.4 | 84.9
sgRNA knockout: sgATF6, 100 nM | 96.9 | 88.7
sgRNA knockout: sgATF6, 1000 nM | 100 | 103
sgRNA knockout: sgATF6, 10000 nM | 75.4 | 36.1
sgRNA knockout: sgATG7, 10 nM | 82.5 | 96
sgRNA knockout: sgATG7, 100 nM | 92.2 | 86.4
sgRNA knockout: sgATG7, 1000 nM | 106 | 80.86
sgRNA knockout: sgATG7, 10000 nM | 73 | 36
sgRNA knockout: sgERN1, 10 nM | 89.94 | 100
sgRNA knockout: sgERN1, 100 nM | 93.3 | 92.1
sgRNA knockout: sgERN1, 1000 nM | 97.2 | 84.3
sgRNA knockout: sgERN1, 10000 nM | 75.1 | 40.8
sgRNA knockout: sgHSF1, 10 nM | 101 | 86.8
sgRNA knockout: sgHSF1, 100 nM | 94.5 | 97.3
sgRNA knockout: sgHSF1, 1000 nM | 86.9 | 98.4
sgRNA knockout: sgHSF1, 10000 nM | 69.5 | 40.7
sgRNA knockout: sgHSF2, 10 nM | 81.1 | 85.8
sgRNA knockout: sgHSF2, 100 nM | 88.5 | 97.7
sgRNA knockout: sgHSF2, 1000 nM | 98 | 97.4
sgRNA knockout: sgHSF2, 10000 nM | 75.1 | 40.7
sgRNA knockout: sgKEAP1, 10 nM | 92.2 | 81.1
sgRNA knockout: sgKEAP1, 100 nM | 87.6 | 83.4
sgRNA knockout: sgKEAP1, 1000 nM | 88.5 | 93.9
sgRNA knockout: sgKEAP1, 10000 nM | 90.9 | 46.6
sgRNA knockout: sgNFE2L2, 10 nM | 105 | 91.3
sgRNA knockout: sgNFE2L2, 100 nM | 102.8 | 82.8
sgRNA knockout: sgNFE2L2, 1000 nM | 97.3 | 70.8
sgRNA knockout: sgNFE2L2, 10000 nM | 89.8 | 35.1
sgRNA knockout: sgSLC35F2, 10 nM | 83.7 | 95.6
sgRNA knockout: sgSLC35F2, 100 nM | 84.7 | 83.9
sgRNA knockout: sgSLC35F2, 1000 nM | 100 | 82.4
sgRNA knockout: sgSLC35F2, 10000 nM | 77.5 | 33.8
sgRNA knockout: sgXBP1, 10 nM | 99.4 | 87.5
sgRNA knockout: sgXBP1, 100 nM | 94.9 | 85.9
sgRNA knockout: sgXBP1, 1000 nM | 108 | 76.97
sgRNA knockout: sgXBP1, 10000 nM | 76.1 | 38.5

CS(=O)(=O)CCNCc1ccc(-c2ccc3ncnc(Nc4ccc(OCc5cccc(F)c5)c(Cl)c4)c3c2)o1 [Lapatinib]
relative cell number
Conditions | BT-20 | HCC-38
sgRNA knockout: sgATF3, 10 nM | 106.6 | 95.3
sgRNA knockout: sgATF3, 100 nM | 92.5 | 79.62
sgRNA knockout: sgATF3, 1000 nM | 87.3 | 98.7
sgRNA knockout: sgATF3, 10000 nM | 56.86 | 61.3
sgRNA knockout: sgATF4, 10 nM | 105 | 95.3
sgRNA knockout: sgATF4, 100 nM | 97 | 77.8
sgRNA knockout: sgATF4, 1000 nM | 91.4 | 90.4
sgRNA knockout: sgATF4, 10000 nM | 54.9 | 53.6
sgRNA knockout: sgATF6, 10 nM | 84.8 | 84.91
sgRNA knockout: sgATF6, 100 nM | 83.2 | 101
sgRNA knockout: sgATF6, 1000 nM | 98.7 | 101
sgRNA knockout: sgATF6, 10000 nM | 51.5 | 59.4
sgRNA knockout: sgATG7, 10 nM | 103.6 | 87.7
sgRNA knockout: sgATG7, 100 nM | 89.7 | 83.8
sgRNA knockout: sgATG7, 1000 nM | 94.9 | 92.9
sgRNA knockout: sgATG7, 10000 nM | 56.8 | 55.3
sgRNA knockout: sgERN1, 10 nM | 80.3 | 91.9
sgRNA knockout: sgERN1, 100 nM | 79.4 | 83.5
sgRNA knockout: sgERN1, 1000 nM | 89.7 | 91.7
sgRNA knockout: sgERN1, 10000 nM | 51.5 | 64.7
sgRNA knockout: sgHSF1, 10 nM | 96.5 | 92
sgRNA knockout: sgHSF1, 100 nM | 99.4 | 91.7
sgRNA knockout: sgHSF1, 1000 nM | 78.4 | 110
sgRNA knockout: sgHSF1, 10000 nM | 56.7 | 71.6
sgRNA knockout: sgHSF2, 10 nM | 83.8 | 103
sgRNA knockout: sgHSF2, 100 nM | 76.4 | 86.4
sgRNA knockout: sgHSF2, 1000 nM | 91 | 102
sgRNA knockout: sgHSF2, 10000 nM | 63.9 | 62.8
sgRNA knockout: sgKEAP1, 10 nM | 101 | 93.8
sgRNA knockout: sgKEAP1, 100 nM | 80.7 | 97.9
sgRNA knockout: sgKEAP1, 1000 nM | 88.5 | 89.4
sgRNA knockout: sgKEAP1, 10000 nM | 55.8 | 60.3
sgRNA knockout: sgNFE2L2, 10 nM | 92.1 | 88.2
sgRNA knockout: sgNFE2L2, 100 nM | 101 | 77.8
sgRNA knockout: sgNFE2L2, 1000 nM | 97.4 | 87.9
sgRNA knockout: sgNFE2L2, 10000 nM | 68.7 | 51.17
sgRNA knockout: sgSLC35F2, 10 nM | 95.7 | 90.7
sgRNA knockout: sgSLC35F2, 100 nM | 95.3 | 74.2
sgRNA knockout: sgSLC35F2, 1000 nM | 92.4 | 88.8
sgRNA knockout: sgSLC35F2, 10000 nM | 55.7 | 58.7
sgRNA knockout: sgXBP1, 10 nM | 103 | 91.8
sgRNA knockout: sgXBP1, 100 nM | 88 | 81.6
sgRNA knockout: sgXBP1, 1000 nM | 91 | 83.9
sgRNA knockout: sgXBP1, 10000 nM | 64.6 | 57

CCOc1cc2ncc(C#N)c(Nc3ccc(OCc4ccccn4)c(Cl)c3)c2cc1NC(=O)/C=C/CN(C)C [Neratinib]
relative cell number
Conditions | BT-20 | HCC-38
sgRNA knockout: sgATF3, 10 nM | 102 | 105
sgRNA knockout: sgATF3, 100 nM | 83.7 | 93.4
sgRNA knockout: sgATF3, 1000 nM | 81.4 | 91.9
sgRNA knockout: sgATF3, 10000 nM | 59.1 | 53.3
sgRNA knockout: sgATF4, 10 nM | 99.6 | 86
sgRNA knockout: sgATF4, 100 nM | 125 | 102
sgRNA knockout: sgATF4, 1000 nM | 83.2 | 95
sgRNA knockout: sgATF4, 10000 nM | 60.5 | 49.2
sgRNA knockout: sgATF6, 10 nM | 106 | 91.9
sgRNA knockout: sgATF6, 100 nM | 90.7 | 102.2
sgRNA knockout: sgATF6, 1000 nM | 91.6 | 97.26
sgRNA knockout: sgATF6, 10000 nM | 57.9 | 52.6
sgRNA knockout: sgATG7, 10 nM | 92.7 | 94.9
sgRNA knockout: sgATG7, 100 nM | 86.8 | 97.2
sgRNA knockout: sgATG7, 1000 nM | 69.6 | 88
sgRNA knockout: sgATG7, 10000 nM | 48.4 | 55
sgRNA knockout: sgERN1, 10 nM | 97.6 | 83.4
sgRNA knockout: sgERN1, 100 nM | 103 | 93.1
sgRNA knockout: sgERN1, 1000 nM | 82.3 | 96.3
sgRNA knockout: sgERN1, 10000 nM | 49 | 49.95
sgRNA knockout: sgHSF1, 10 nM | 93.83 | 110
sgRNA knockout: sgHSF1, 100 nM | 98.5 | 96.8
sgRNA knockout: sgHSF1, 1000 nM | 81.1 | 92.8
sgRNA knockout: sgHSF1, 10000 nM | 59.7 | 50
sgRNA knockout: sgHSF2, 10 nM | 101 | 99.2
sgRNA knockout: sgHSF2, 100 nM | 93.5 | 110
sgRNA knockout: sgHSF2, 1000 nM | 81.6 | 102
sgRNA knockout: sgHSF2, 10000 nM | 57 | 46.1
sgRNA knockout: sgKEAP1, 10 nM | 98.3 | 93
sgRNA knockout: sgKEAP1, 100 nM | 95.8 | 113
sgRNA knockout: sgKEAP1, 1000 nM | 77 | 87.7
sgRNA knockout: sgKEAP1, 10000 nM | 58.5 | 53.7
sgRNA knockout: sgNFE2L2, 10 nM | 99 | 82.7
sgRNA knockout: sgNFE2L2, 100 nM | 90.3 | 97.4
sgRNA knockout: sgNFE2L2, 1000 nM | 70.3 | 92.7
sgRNA knockout: sgNFE2L2, 10000 nM | 54.1 | 50.2
sgRNA knockout: sgSLC35F2, 10 nM | 101 | 97.5
sgRNA knockout: sgSLC35F2, 100 nM | 82.9 | 102
sgRNA knockout: sgSLC35F2, 1000 nM | 76.6 | 95.3
sgRNA knockout: sgSLC35F2, 10000 nM | 50.7 | 44.56
sgRNA knockout: sgXBP1, 10 nM | 111 | 85.4
sgRNA knockout: sgXBP1, 100 nM | 103 | 97.9
sgRNA knockout: sgXBP1, 1000 nM | 78.4 | 99.2
sgRNA knockout: sgXBP1, 10000 nM | 58 | 51.4
